According to patent US20210277142A1:
These are yes or no findings as the source states them, for the method shown. Some entries that bind do so weakly or less than the wild type. For some assays here: Where a sequence is shown, tags or fusion partners need not be part of it.

T1: Mcm5-derived 15 aa microarray peptides with the consensus motif WDETKGE (human)
T1 sequence (peptide): WDETKGE

T2: recombinant His-tagged human Mcm5 fragment (human) (UniProt P33992)
T2 sequence: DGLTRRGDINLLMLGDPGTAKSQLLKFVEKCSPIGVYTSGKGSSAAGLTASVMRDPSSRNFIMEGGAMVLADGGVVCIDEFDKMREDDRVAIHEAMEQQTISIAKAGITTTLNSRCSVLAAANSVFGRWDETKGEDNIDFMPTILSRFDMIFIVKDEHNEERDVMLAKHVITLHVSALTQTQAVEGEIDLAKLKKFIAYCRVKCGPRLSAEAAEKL

T3: Mcm5-derived 15 aa microarray peptides with the consensus motif DDRVAIH (human)
T3 sequence (peptide): DDRVAIH


Key:
[1] = target: T1, Mcm5-derived 15 aa microarray peptides with the consensus motif WDETKGE (human); experiment: peptide microarray, antibody at 1 and 10 ug/ml, goat anti-mouse DyLight680 detection
[2] = target: T2, recombinant His-tagged human Mcm5 fragment (human); experiment: colorimetric screening ELISA on His-tagged Mcm5 on Ni-NTA plate
[3] = target: T2, recombinant His-tagged human Mcm5 fragment (human); experiment: ELISA, MAb dilution on antigen-limiting 25 ng/well Mcm5 on Ni-NTA plate
[4] = target: T3, Mcm5-derived 15 aa microarray peptides with the consensus motif DDRVAIH (human); experiment: peptide microarray, antibody at 1 and 10 ug/ml, goat anti-mouse DyLight680 detection

Row | binding [1] | binding [2] | binding [3] | binding [4] | Binder
1 | binds | binds | binds | – | mouse monoclonal IgG antibody 12A7 (antibody, V domains shown) VH: QQDLQQSGPGILQPTQTLSLTCSFSGFSLSTSGMGVSWIRQSSNMGLEWLAHIFWDDDKRYNPSLRSRLTLSKDTSSSQVFLMITSVSTADSATYYCARRSDYNYYSMDYWGQGTAVTVSS VL: DIMLTQSPLSLSVTLGDQASISCRSSQNLVQSNGNTYLTWYLQKPGQSPKVLINKVSNRFYGVPDRFSGSGSGTDFTLRISRVEAEDLGIYFCSQSTRVPYTFGGGTKLEIRR
2 | binds | – | – | binds | mouse monoclonal IgG antibody 4B4 (antibody, V domains shown) VH: VKLQESGGGLVKPGGSLKLSCAASGFTFSNYAMSWVRQNPEKRLEWVATISRGGSYTYYPDSVKGRFTISRDNAKNTLYLQMNSLRSEDTAMYFCARHGYNYDDGAWFANWGQGTLVTVSA VL: DIMLTQSPSSLSASLGERVSLTCRASQDIGSSLNWLQQEPDGTIKRLIYATSSLDSGVPKRFSGSRSGSDYSLTISSLESEDFVDYYCLQYASSPPTFGGGTKLEIK
